Values quoted from earlier work as cited in EP0343268A1, “Pharmaceutical composition and process for preparing the same” (BIOGAL GYOGYSZERGYAR, priority 1988, dated 1989).

Settings: in the presence of sulfhydryl-containing compounds, particularly acetylcysteine; cited from earlier work

In the case of CC1=C(C(=O)O)N2C(=O)[C@@H](NC(=O)[C@H](N)c3ccccc3)[C@H]2SC1 [cephalexin], the “absorption from the stomach” value is listed as “certain but not significant extent of retardation”.
